This passage reports binding results from PMC9648417.

For the experiment, the target named is T1, Schlafen family member 11 (SLFN11), Myc-FLAG-tagged, doxycycline-inducible (human) (UniProt Q7Z7L1).
T1 sequence: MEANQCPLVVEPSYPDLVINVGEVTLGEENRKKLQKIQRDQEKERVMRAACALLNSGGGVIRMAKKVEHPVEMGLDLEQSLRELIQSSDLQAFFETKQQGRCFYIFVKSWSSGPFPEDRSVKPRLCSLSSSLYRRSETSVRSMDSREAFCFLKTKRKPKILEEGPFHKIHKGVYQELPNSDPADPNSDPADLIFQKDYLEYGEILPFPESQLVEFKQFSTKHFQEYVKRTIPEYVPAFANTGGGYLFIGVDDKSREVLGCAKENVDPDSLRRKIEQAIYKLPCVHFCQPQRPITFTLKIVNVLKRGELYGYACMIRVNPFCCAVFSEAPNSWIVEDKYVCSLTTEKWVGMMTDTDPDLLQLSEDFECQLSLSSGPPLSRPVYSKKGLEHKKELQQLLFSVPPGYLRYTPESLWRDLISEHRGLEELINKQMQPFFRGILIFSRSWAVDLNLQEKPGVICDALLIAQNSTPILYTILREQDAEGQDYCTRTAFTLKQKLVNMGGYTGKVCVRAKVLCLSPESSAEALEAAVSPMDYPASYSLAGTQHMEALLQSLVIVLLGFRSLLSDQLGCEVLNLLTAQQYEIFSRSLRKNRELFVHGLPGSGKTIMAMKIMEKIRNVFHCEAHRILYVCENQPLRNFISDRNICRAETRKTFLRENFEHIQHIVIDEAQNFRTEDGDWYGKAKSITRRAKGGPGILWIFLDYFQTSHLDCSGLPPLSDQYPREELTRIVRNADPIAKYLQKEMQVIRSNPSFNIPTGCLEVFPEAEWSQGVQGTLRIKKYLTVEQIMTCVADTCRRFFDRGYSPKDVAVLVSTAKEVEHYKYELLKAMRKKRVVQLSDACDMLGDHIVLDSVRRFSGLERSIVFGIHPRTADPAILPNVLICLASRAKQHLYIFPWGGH
The experiment in a line: affinity purification with mass spectrometry; IP of Myc-tagged SLFN11 with Myc-Tag-conjugated sepharose beads from NP-40 lysates of DOX-induced LN229 cells, untreated or irradiated with 8 Gy for 30 minutes; no-DOX samples as negative controls; LC/MS-MS.

No constants are given. Whether binding was seen depends on the method and setting. In cells and extracts the contact can be indirect. Here binding means that the protein was enriched with, or labelled near, the bait; the list need not be complete. Sequences can lack the tags named with a protein.

B1: NFκB2 (NFκB2/p100) (protein, UniProt Q00653-1 1-900)
chain: MESCYNPGLDGIIEYDDFKLNSSIVEPKEPAPETADGPYLVIVEQPKQRGFRFRYGCEGPSHGGLPGASSEKGRKTYPTVKICNYEGPAKIEVDLVTHSDPPRAHAHSLVGKQCSELGICAVSVGPKDMTAQFNNLGVLHVTKKNMMGTMIQKLQRQRLRSRPQGLTEAEQRELEQEAKELKKVMDLSIVRLRFSAFLRASDGSFSLPLKPVISQPIHDSKSPGASNLKISRMDKTAGSVRGGDEVYLLCDKVQKDDIEVRFYEDDENGWQAFGDFSPTDVHKQYAIVFRTPPYHKMKIERPVTVFLQLKRKRGGDVSDSKQFTYYPLVEDKEEVQRKRRKALPTFSQPFGGGSHMGGGSGGAAGGYGGAGGGGSLGFFPSSLAYSPYQSGAGPMGCYPGGGGGAQMAATVPSRDSGEEAAEPSAPSRTPQCEPQAPEMLQRAREYNARLFGLAQRSARALLDYGVTADARALLAGQRHLLTAQDENGDTPLHLAIIHGQTSVIEQIVYVIHHAQDLGVVNLTNHLHQTPLHLAVITGQTSVVSFLLRVGADPALLDRHGDSAMHLALRAGAGAPELLRALLQSGAPAVPQLLHMPDFEGLYPVHLAVRARSPECLDLLVDSGAEVEATERQGGRTALHLATEMEELGLVTHLVTKLRANVNARTFAGNTPLHLAAGLGYPTLTRLLLKAGADIHAENEEPLCPLPSPPTSDSDSDSEGPEKDTRSSFRGHTPLDLTCSTKVKTLLLNAAQNTMEPPLTPPSPAGPGLSLGDTALQNLEQLLDGPEAQGSWAELAERLGLRSLVDTYRQTTSPSGSLLRSYELAGGDLAGLLEALSDMGLEEGVRLLRGPETRDKLPSTAEVKEDSAYGSQSVEQEAEKLGPPPEPPGGLCHGHPQPQVH
Regarding B1, the binding entry is “binds”.
